Molecules are shown by their SMILES. “And” between values parts separate entries of the source, which are not always exact repeats. Equal values may be shown once. Where a name gives a salt, the structure may show the parent alone. ± gives the standard deviation of the averaged measurements. The list shows a part of the results. Single values are uncertain, as repeats are few or missing.

Our source for the neurite formation score values is the supplement of paper PMC8047044.

The assay concerns Neuro-2a. Briefly: neurite formation score, plate-normalized to DMSO control mean 5.04 (score (0-8 scale)); higher = more or longer neurites. The following applies: 10 µM.
With `CCOC(=O)c1cnc2ccc(-c3cncc(NS(=O)(=O)c4ccccc4)c3)cn12`, the neurite formation score was found to be 0.189.
Compound `Cc1cc(N2CCOCC2)cc2[nH]c(-c3c(NC[C@@H](O)c4cccc(Cl)c4)cc[nH]c3=O)nc12` showed a neurite formation score of 0.543.
`O=c1cc(CN2CCOCC2)occ1OCCCCCSc1ccnc2cc(C(F)(F)F)ccc12`: the neurite formation score stood at 4.52.
With `O=C1Nc2ccc(I)cc2/C1=C/c1cc(Br)c(O)c(Br)c1`, the neurite formation score is 0.76.
Compound `Cc1cc(C(=O)NOCCO)c(Nc2ccc(I)cc2F)n(C)c1=O` came in with a neurite formation score of 4.76.
`COC(=O)Nc1nc2cc(C(=O)c3cccs3)ccc2[nH]1` [Nocodazole] registered a neurite formation score of 1.76.
In turn, `CC(=O)Nc1nc(C)c(-c2ccc(Cl)c(S(=O)(=O)NCCO)c2)s1` had a neurite formation score of 4.52.
`C[S+]([O-])c1ccc(-c2nc(-c3ccc(F)cc3)c(-c3ccncc3)[nH]2)cc1` (centres undefined) had a neurite formation score of 4.85.
On to `O=C(O)c1ccc(Nc2ncc3c(n2)-c2ccc(Cl)cc2C(c2c(F)cccc2F)=NC3)cc1`, for which the neurite formation score is 0.757.
`COc1cc2c(c(OC)c1OC)-c1c(cc3c(c1OC)OCO3)CC(C)C(C)C2` (centres undefined) [Schizandrin B] came in with a neurite formation score of 5.19.
In the case of `Cc1ccc(S(=O)(=O)Nc2nc3ccccc3nc2Nc2ccc3nsnc3c2)cc1`, the neurite formation score came to 2.09.
With `CNC(=O)c1cccc(-c2ccc3c(N4CCOC[C@@H]4C)nc(N4CCOC[C@@H]4C)nc3n2)c1`, the neurite formation score was 4.43.
Consider `CC(C)(C#N)c1ccc(N2C(=O)OCc3cnc4ccc(-c5cnc6ccccc6c5)cc4c32)cc1`, for which the neurite formation score stood at 5.09.
For the compound `CN(c1ncccc1CNc1nc(Nc2ccc3c(c2)CC(=O)N3)ncc1C(F)(F)F)S(C)(=O)=O`, the neurite formation score is 1.19 and 0.853.
`CN1CC[C@H](c2c(O)cc(O)c3c(=O)cc(-c4ccccc4Cl)oc23)[C@H](O)C1` [Flavopiridol hydrochloride] displayed a neurite formation score of 2.76.
In the case of `CCOc1cc(C(=O)N2CCC(N3CCN(C)CC3)CC2)ccc1Nc1ncc2c(n1)N(C1CCCC1)c1ccccc1C(=O)N2C`, the neurite formation score came out at 2.41.
Then `N#CCNC(=O)c1ccc(-c2ccnc(Nc3ccc(N4CCOCC4)cc3)n2)cc1`, with 5.08.
With `CCCCCCCCCCCCc1ccc(S(=O)(=O)Nc2nncs2)cc1` the figure was 1.52; with `CC(C)(C)c1nc2c3cc[nH]c(=O)c3c3cc(F)ccc3c2[nH]1` [Pyridone 6], 4.08; with `CN1CCN(Cc2ccc(-c3cnc4[nH]cc(-c5ccc6[nH]ccc6c5)c4c3)cc2)CC1`, 3.52.
As to `Cc1cc([C@@H](C)Nc2ccccc2C(=O)O)c2nc(N3CCOCC3)cc(=O)n2c1`, the neurite formation score was 4.19.
Regarding `NC(=O)c1ccc(N(C(N)=O)c2c(F)cccc2F)nc1-c1ccc(F)cc1F`, the neurite formation score came to 4.43.
`COc1cc(Nc2ncc(F)c(Nc3ccc4c(n3)N(COP(=O)(O)O)C(=O)C(C)(C)O4)n2)cc(OC)c1OC` [Fostamatinib (R788)]: the neurite formation score came to 4.09.
`c1cncc(CN2CCC(n3ncc4c(N5CCOCC5)nc(-c5ccc6[nH]ccc6c5)nc43)CC2)c1` showed a neurite formation score of 0.189.
With `Cc1cc(CS(=O)(=O)c2ccccc2)cc(OCc2ccc(CN3CCC[C@@H]3CO)cc2)c1` the figure was 4.74; with `CC(C)n1nc(-c2cc3cc(O)ccc3[nH]2)c2c(N)ncnc21`, 2.42.
Regarding `Cn1c(=O)c(F)c(Nc2ccc(I)cc2F)c2c(=O)n(C[C@@H](O)CO)cnc21`, the neurite formation score came to 5.19.
`Nc1nc(Nc2ccc(S(N)(=O)=O)cc2)nn1C(=O)c1c(F)cccc1F`: the neurite formation score is 3.08.
`CNC(=O)c1cc(Oc2ccc(NC(=O)c3cccc(C(F)(F)F)c3)cc2)ccn1` returned a neurite formation score of 4.19.
As to `COc1cc2nccc(Oc3ccc(NC(=O)C4(C(=O)Nc5ccc(F)cc5)CC4)cc3)c2cc1OC` [Cabozantinib malate (XL184)], the neurite formation score is 1.09.
Regarding `COc1cc(C(=O)NC2CCN(C)CC2)ccc1Nc1ncc2c(n1)N(C1CCCC1)CC(F)(F)C(=O)N2C`, the neurite formation score is 3.76.
As for `CC[C@H](Nc1ncnc2[nH]cnc12)c1nc2cccc(F)c2c(=O)n1-c1ccccc1` [CAL-101 (Idelalisib, GS-1101)], the neurite formation score came to 4.21.
As to `CCn1c(=O)c(-c2ccc(-c3cncs3)cc2Cl)cc2cnc(Nc3ccc(N4CCN(C)CC4)cc3)nc21`, the neurite formation score came out at 4.43.
For `O=C(NOCC(O)CO)c1cc(Br)c(F)c(F)c1Nc1ccc(I)cc1F` (centres undefined), the neurite formation score was 4.85.
Turning to `C=CC(=O)Nc1cc2c(Nc3ccc(F)c(Cl)c3)ncnc2cc1OCCCN1CCOCC1` [Canertinib (CI-1033)], the neurite formation score stood at 2.88.
In turn, `Cc1cc(O)c2c(c1)C(=O)c1cccc(O)c1C2=O` [Chrysophanol] returned a neurite formation score of 3.42.
`CSc1cccc(Nc2ncc3cc(-c4c(Cl)cccc4Cl)c(=O)n(C)c3n2)c1` came in with a neurite formation score of 0.76.
`CN1CCN(c2ccc3nc(-c4c(N)c5c(F)cccc5[nH]c4=O)[nH]c3c2)CC1` [Dovitinib Dilactic acid] had a neurite formation score of 1.43.
For `O=C(Nc1nc2cccc(-c3ccc(CN4CCS(=O)(=O)CC4)cc3)n2n1)C1CC1`, the neurite formation score is 4.59 ± 1.6.
